The results in this text go back to publication PMC12668627.

Chains of the proteins cited; added tags and fusions are not shown.
UniProt Q13485: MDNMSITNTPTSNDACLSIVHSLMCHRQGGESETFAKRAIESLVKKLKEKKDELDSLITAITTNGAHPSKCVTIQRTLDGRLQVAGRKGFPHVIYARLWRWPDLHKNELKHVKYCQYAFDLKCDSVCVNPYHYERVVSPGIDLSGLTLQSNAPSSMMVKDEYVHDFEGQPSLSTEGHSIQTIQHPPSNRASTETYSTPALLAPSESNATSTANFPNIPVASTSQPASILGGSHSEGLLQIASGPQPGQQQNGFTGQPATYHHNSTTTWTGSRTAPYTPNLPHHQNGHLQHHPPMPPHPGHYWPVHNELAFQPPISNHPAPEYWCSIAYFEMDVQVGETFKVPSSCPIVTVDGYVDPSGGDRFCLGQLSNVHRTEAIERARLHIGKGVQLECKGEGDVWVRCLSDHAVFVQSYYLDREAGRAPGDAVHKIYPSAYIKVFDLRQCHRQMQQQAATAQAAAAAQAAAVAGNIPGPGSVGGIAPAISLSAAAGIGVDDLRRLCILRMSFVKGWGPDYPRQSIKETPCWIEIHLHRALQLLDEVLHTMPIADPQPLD
UniProt P35222: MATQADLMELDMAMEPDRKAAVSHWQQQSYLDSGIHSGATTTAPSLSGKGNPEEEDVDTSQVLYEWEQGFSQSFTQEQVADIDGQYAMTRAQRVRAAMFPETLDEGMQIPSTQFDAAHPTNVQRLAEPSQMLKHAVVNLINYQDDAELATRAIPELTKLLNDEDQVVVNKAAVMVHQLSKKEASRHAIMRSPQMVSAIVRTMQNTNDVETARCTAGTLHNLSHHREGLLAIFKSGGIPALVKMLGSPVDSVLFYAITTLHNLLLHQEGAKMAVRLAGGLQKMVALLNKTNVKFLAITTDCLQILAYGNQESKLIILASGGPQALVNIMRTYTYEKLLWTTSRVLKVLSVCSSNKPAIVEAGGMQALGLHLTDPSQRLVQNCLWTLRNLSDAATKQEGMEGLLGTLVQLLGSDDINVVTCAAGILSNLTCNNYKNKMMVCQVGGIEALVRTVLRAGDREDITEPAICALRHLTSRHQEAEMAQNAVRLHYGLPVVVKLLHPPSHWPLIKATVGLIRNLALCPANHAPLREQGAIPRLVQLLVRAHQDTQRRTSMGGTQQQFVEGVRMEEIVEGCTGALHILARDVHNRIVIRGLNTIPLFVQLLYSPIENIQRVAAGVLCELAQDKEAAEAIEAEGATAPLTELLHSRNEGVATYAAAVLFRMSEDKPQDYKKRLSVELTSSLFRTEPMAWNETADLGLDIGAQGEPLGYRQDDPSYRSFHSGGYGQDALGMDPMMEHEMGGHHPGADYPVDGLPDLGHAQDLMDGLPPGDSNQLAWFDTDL
UniProt Q8IUD2: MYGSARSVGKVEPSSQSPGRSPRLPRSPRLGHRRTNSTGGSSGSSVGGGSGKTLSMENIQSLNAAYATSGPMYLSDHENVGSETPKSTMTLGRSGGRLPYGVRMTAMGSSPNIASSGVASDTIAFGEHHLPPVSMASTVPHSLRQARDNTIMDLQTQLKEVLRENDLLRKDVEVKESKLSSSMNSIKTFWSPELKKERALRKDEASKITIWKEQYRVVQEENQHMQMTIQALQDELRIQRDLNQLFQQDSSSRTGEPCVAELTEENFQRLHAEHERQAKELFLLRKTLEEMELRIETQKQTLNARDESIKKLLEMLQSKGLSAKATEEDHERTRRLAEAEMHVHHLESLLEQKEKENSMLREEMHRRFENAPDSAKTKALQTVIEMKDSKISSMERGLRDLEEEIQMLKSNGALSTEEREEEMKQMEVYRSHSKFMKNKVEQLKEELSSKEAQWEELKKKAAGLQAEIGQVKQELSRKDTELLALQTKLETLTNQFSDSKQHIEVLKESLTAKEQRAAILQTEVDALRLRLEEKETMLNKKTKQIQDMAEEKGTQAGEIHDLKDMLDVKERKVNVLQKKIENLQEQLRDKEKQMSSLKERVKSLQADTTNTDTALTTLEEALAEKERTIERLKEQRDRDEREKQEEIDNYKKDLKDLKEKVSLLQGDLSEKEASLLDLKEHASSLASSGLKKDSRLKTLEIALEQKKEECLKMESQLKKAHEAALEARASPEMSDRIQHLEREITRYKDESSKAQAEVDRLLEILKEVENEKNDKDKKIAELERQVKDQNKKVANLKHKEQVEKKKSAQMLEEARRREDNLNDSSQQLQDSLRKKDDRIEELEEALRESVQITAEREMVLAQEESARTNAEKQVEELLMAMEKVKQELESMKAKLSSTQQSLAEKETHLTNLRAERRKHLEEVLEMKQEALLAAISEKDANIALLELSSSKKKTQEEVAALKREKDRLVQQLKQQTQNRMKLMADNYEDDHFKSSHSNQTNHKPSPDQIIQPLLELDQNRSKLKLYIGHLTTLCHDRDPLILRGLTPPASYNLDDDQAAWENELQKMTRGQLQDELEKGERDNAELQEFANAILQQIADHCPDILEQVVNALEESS
UniProt Q93009: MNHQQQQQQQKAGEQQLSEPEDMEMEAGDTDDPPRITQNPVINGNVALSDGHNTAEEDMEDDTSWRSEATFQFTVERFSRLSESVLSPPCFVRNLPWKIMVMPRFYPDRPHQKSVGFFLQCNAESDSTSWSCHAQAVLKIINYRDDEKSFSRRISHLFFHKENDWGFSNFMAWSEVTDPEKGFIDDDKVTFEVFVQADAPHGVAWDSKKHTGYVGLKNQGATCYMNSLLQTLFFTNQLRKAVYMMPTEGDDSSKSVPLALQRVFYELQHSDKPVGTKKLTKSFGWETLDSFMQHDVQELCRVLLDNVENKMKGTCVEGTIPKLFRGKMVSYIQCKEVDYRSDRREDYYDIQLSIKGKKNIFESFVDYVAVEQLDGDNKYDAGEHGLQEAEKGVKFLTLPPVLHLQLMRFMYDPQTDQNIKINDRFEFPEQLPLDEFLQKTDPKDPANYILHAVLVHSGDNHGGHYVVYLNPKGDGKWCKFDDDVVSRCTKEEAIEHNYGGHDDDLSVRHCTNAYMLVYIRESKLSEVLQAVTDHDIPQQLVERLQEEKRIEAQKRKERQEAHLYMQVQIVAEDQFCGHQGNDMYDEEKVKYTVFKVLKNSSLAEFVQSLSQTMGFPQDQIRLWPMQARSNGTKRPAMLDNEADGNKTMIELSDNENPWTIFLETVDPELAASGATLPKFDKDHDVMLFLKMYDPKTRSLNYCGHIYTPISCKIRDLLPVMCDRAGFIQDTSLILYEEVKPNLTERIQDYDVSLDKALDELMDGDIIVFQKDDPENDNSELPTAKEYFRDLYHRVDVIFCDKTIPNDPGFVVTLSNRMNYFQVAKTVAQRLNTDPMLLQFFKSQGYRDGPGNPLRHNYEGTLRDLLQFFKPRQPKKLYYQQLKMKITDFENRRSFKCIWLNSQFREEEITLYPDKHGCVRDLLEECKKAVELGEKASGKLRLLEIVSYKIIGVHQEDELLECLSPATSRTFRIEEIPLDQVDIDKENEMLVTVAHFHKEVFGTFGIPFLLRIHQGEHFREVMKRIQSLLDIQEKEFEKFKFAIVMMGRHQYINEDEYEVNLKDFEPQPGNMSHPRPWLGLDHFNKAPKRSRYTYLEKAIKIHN
UniProt Q5VTR2: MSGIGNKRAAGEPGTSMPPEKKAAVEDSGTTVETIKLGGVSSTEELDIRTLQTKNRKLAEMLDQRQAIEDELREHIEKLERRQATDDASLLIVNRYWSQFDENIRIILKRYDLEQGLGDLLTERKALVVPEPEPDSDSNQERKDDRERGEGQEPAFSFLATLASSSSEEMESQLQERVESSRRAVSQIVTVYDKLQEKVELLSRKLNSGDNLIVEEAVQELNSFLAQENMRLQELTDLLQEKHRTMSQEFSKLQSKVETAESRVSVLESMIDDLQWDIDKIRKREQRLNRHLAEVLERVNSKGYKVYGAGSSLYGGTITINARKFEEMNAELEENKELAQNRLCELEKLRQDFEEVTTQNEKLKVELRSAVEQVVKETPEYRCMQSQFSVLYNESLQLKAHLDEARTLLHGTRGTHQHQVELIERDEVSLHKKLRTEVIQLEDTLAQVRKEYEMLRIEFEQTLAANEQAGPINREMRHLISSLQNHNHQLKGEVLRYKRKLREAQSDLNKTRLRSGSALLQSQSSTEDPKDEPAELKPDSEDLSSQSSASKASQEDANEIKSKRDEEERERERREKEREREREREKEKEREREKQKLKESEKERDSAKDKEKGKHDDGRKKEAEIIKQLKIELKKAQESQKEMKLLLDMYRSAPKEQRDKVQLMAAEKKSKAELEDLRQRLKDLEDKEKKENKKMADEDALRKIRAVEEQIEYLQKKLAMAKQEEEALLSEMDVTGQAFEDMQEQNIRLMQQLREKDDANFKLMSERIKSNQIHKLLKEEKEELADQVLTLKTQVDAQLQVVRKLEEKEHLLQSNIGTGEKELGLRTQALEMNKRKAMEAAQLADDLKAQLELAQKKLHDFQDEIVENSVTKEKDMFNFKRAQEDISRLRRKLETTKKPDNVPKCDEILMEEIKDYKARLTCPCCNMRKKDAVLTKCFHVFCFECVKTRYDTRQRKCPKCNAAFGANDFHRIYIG
UniProt Q9UPN9: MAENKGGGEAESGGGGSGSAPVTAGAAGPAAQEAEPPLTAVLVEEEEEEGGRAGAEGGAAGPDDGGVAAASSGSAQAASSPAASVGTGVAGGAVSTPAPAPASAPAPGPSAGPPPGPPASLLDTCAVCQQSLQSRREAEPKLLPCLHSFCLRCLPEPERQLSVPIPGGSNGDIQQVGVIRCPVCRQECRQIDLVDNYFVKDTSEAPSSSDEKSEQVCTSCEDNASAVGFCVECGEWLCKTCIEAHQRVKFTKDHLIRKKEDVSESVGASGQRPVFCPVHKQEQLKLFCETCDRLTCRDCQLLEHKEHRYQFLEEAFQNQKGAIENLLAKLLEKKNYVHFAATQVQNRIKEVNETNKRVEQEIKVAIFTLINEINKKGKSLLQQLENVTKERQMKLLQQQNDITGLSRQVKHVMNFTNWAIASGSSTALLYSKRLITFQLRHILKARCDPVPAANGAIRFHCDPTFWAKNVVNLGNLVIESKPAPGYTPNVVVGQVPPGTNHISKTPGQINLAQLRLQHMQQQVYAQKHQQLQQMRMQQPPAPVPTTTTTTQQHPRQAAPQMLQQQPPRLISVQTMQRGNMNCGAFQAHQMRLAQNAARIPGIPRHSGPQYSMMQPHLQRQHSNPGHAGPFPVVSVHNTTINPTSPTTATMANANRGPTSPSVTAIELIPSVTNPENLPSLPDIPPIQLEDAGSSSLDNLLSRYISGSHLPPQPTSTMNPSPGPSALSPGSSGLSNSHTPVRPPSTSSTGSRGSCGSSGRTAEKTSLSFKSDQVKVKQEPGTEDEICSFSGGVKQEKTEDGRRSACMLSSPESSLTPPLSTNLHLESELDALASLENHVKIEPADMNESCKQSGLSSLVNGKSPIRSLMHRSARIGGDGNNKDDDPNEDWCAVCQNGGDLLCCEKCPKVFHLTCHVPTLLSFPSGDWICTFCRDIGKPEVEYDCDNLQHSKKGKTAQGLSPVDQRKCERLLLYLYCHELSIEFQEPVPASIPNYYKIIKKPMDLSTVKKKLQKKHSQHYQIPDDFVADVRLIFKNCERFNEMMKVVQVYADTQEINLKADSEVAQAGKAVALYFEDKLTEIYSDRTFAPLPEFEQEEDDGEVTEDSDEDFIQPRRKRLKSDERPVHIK
UniProt P35221: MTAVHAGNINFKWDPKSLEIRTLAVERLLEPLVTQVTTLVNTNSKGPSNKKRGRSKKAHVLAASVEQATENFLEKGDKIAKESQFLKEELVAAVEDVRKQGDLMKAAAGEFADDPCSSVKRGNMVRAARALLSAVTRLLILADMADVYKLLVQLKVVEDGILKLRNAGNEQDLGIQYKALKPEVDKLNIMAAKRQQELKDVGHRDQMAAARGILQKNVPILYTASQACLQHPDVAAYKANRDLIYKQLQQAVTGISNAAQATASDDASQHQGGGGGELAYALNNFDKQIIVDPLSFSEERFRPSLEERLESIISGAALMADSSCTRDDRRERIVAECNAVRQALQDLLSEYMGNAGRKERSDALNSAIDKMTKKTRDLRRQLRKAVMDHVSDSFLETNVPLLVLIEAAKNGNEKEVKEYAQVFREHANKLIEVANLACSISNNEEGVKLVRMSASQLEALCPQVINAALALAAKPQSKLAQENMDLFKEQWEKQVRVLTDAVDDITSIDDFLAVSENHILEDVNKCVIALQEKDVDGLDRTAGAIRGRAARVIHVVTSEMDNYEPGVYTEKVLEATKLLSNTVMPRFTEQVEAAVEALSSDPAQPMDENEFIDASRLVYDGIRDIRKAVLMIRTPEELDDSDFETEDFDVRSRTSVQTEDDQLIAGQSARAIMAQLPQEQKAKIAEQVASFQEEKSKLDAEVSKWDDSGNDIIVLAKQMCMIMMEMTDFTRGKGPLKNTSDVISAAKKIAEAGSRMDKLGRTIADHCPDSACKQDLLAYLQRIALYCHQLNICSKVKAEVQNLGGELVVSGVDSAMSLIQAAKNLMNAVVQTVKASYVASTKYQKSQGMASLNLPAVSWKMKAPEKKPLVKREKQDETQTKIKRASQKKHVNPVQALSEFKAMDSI

Assay [1] addresses SMAD4-PafA-Myc (UniProt Q13485). In words: proximity labelling; PUP-IT: HEK293T cells stably expressing 3 × Flag-TbN-PupE transfected with bait-PafA-Myc (prey endogenous or co-transfected); RIPA lysate, anti-Flag immunoprecipitation, immunoblot of the prey; molecular weight laddering as read-out.
Assay [2] deals with β-catenin-PafA-Myc (human) (UniProt P35222). The description is as above.
In assay [3] the target is SMAD4-PafA-Myc (UniProt Q13485). In words: proximity labelling; STUPPIT approach I: HEK293T cells stably expressing 3 × Flag-TbN-PupE co-transfected with preyA-PafA-Myc and HA-TbC-preyC; streptavidin pulldown of biotinylated proteins, immunoblot.
The target in another assay is HA-TbC-β-catenin (human) (UniProt P35222). The assay is described as above.

Results are given in words; binding and its absence hold for the method and conditions named. Binding seen in cells or lysates may run through a third protein. These calls come from enrichment with a bait or labelling near it, and not all partners need be listed. For some assays here: No binding means not detected with the bait.

For HA-ERC1 (from UniProt Q8IUD2 1-1116), the binding result (with SMAD4-PafA-Myc [1]; in assay [2]) was “binds” throughout.

Consider HA-USP7 (from UniProt Q93009 1-1102), for which, in the assay with SMAD4-PafA-Myc [1], the binding result is recorded as “binds”.

As to RNF20-HA (from UniProt Q5VTR2 1-975), the figures for the binding result (with SMAD4-PafA-Myc [1]; in assay [2]) were “no binding” and “binds”, respectively.

Consider “TRIM33 (expression construct) (from UniProt Q9UPN9 1-1127)”, for which the binding entry in the assay with SMAD4-PafA-Myc [3] and with HA-TbC-β-catenin (human) was “binds” each time.

In the case of “α-catenin-V5 (from UniProt P35221 1-906)”, the binding entry with HA-TbC-β-catenin (human) is on record as “binds”.
